This is an account of results in publication PMC8384837.

Numbering of substitutions follows the chain as printed. Some of the results follow. For some assays here: At the low end of the ranking the order means little. For some assays here: Construct or isoform of the protein are uncertain.

For one assay, the target named is T1, PUM1 PUF domain R2-VFQ R3-THE R4-TFR N899V + Y900F + C935T + R936H + Q939E + N971T + H972F + Q975R (UniProt Q14671).
T1 sequence: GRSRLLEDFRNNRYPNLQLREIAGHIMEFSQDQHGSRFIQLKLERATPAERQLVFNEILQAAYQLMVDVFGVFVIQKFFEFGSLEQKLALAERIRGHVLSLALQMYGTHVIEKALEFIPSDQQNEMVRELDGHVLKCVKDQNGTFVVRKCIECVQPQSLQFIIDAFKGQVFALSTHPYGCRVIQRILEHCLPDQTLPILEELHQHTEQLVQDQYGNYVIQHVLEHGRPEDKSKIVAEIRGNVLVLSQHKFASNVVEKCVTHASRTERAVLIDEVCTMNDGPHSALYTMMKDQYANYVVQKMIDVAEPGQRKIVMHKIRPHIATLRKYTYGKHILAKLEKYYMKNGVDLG
The conditions noted are these: yeast three-hybrid, YBZ-1, SC-Leu-His + 0.5 mM 3-AT, 4 days.
Regarding “GGCUAGAACUAGUGGAUCCCCCGGCGCCCGGCGGCUCGAGCCCGGGUAAGUGAUAAUCGUCUGCAUGCCGCCGGGCGCCAUGCCUGCAGGUCGACUCUAGAAAACAUG”, the binding signal (log2 enrichment (interaction score)) is -5.76. On to “GGCUAGAACUAGUGGAUCCCCCGGCGCCCGGCGGCUCGAGCCCGGGUAAGUGUACGUCGUCUGCAUGCCGCCGGGCGCCAUGCCUGCAGGUCGACUCUAGAAAACAUG”, for which the binding signal (log2 enrichment (interaction score)) was -4.54. On the same count and under the same terms, the value for “GGCUAGAACUAGUGGAUCCCCCGGCGCCCGGCGGCUCGAGCCCGGGUAAGUUGGCAAAGUCUGCAUGCCGCCGGGCGCCAUGCCUGCAGGUCGACUCUAGAAAACAUG” was -5.77; that for “GGCUAGAACUAGUGGAUCCCCCGGCGCCCGGCGGCUCGAGCCCGGGUAAGUGUAAAAAGUCUGCAUGCCGCCGGGCGCCAUGCCUGCAGGUCGACUCUAGAAAACAUG” was -6.1.

For the sequence “GGCUAGAACUAGUGGAUCCCCCGGCGCCCGGCGGCUCGAGCCCGGGUAAGUUUAUAGCGUCUGCAUGCCGCCGGGCGCCAUGCCUGCAGGUCGACUCUAGAAAACAUG”, the binding signal (log2 enrichment (interaction score)) is -5.18. Take “GGCUAGAACUAGUGGAUCCCCCGGCGCCCGGCGGCUCGAGCCCGGGUAAGUAGGAGCUGUCUGCAUGCCGCCGGGCGCCAUGCCUGCAGGUCGACUCUAGAAAACAUG”: the binding signal (log2 enrichment (interaction score)) is -5.33. Same read-out and setting: the value for “GGCUAGAACUAGUGGAUCCCCCGGCGCCCGGCGGCUCGAGCCCGGGUAAGGUUAAGUGGUCUGCAUGCCGCCGGGCGCCAUGCCUGCAGGUCGACUCUAGAAAACAUG” was -5.48. For the sequence “GGCUAGAACUAGUGGAUCCCCCGGCGCCCGGCGGCUCGAGCCCGGGUAAGCUUUUGUGGUCUGCAUGCCGCCGGGCGCCAUGCCUGCAGGUCGACUCUAGAAAACAUG”, the binding signal (log2 enrichment (interaction score)) is -5.52. With “GGCUAGAACUAGUGGAUCCCCCGGCGCCCGGCGGCUCGAGCCCGGGUAAGUCGAAGACGUCUGCAUGCCGCCGGGCGCCAUGCCUGCAGGUCGACUCUAGAAAACAUG”, the binding signal (log2 enrichment (interaction score)) is -4.88. The same measure, in the same setting: the value for “GGCUAGAACUAGUGGAUCCCCCGGCGCCCGGCGGCUCGAGCCCGGGUAAGUUUAGCUCGUCUGCAUGCCGCCGGGCGCCAUGCCUGCAGGUCGACUCUAGAAAACAUG” was -4.9; that for “GGCUAGAACUAGUGGAUCCCCCGGCGCCCGGCGGCUCGAGCCCGGGUAAGCUGGAUAAGUCUGCAUGCCGCCGGGCGCCAUGCCUGCAGGUCGACUCUAGAAAACAUG” was -5.42. On the same count and under the same terms, with “GGCUAGAACUAGUGGAUCCCCCGGCGCCCGGCGGCUCGAGCCCGGGUAAGGUCAGAACGUCUGCAUGCCGCCGGGCGCCAUGCCUGCAGGUCGACUCUAGAAAACAUG” the figure was -5.29. On to “GGCUAGAACUAGUGGAUCCCCCGGCGCCCGGCGGCUCGAGCCCGGGUAAGUUUAUAAUGUCUGCAUGCCGCCGGGCGCCAUGCCUGCAGGUCGACUCUAGAAAACAUG”, for which the binding signal (log2 enrichment (interaction score)) is -4.45.

Consider “GGCUAGAACUAGUGGAUCCCCCGGCGCCCGGCGGCUCGAGCCCGGGUAAGUGGUCUACGUCUGCAUGCCGCCGGGCGCCAUGCCUGCAGGUCGACUCUAGAAAACAUG”, for which the binding signal (log2 enrichment (interaction score)) is less than -5.84.

In a further assay the target is T2, PUM1 PUF domain R5-PHQ R6-SWD C1007P + R1008H + N1043S + Y1044W + Q1047D (UniProt Q14671).
T2 sequence: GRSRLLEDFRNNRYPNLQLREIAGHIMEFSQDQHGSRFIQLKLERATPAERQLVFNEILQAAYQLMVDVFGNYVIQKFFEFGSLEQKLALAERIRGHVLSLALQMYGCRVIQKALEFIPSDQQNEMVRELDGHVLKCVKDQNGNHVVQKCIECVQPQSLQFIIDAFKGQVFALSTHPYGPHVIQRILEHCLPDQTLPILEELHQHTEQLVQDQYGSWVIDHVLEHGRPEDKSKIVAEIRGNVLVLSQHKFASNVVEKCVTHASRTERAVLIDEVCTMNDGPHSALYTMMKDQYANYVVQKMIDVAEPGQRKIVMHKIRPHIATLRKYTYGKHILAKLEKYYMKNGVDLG
Conditions: yeast three-hybrid, YBZ-1, SC-Leu-His + 0.5 mM 3-AT, 4 days.
For “GGCUAGAACUAGUGGAUCCCCCGGCGCCCGGCGGCUCGAGCCCGGGUAAGUUGAAAUCGUCUGCAUGCCGCCGGGCGCCAUGCCUGCAGGUCGACUCUAGAAAACAUG”, the binding signal (log2 enrichment (interaction score)) was -8.59. Consider “GGCUAGAACUAGUGGAUCCCCCGGCGCCCGGCGGCUCGAGCCCGGGUAAGUGUACGUCGUCUGCAUGCCGCCGGGCGCCAUGCCUGCAGGUCGACUCUAGAAAACAUG”, for which the binding signal (log2 enrichment (interaction score)) is -8.27. On the same count and under the same terms, with “GGCUAGAACUAGUGGAUCCCCCGGCGCCCGGCGGCUCGAGCCCGGGUAAGUGUAAAAAGUCUGCAUGCCGCCGGGCGCCAUGCCUGCAGGUCGACUCUAGAAAACAUG” the figure was less than -8.21.

The target in a further assay is T3, PUM1 PUF domain R6-SWD R7-NPG N1043S + Y1044W + Q1047D + S1079N + N1080P + E1083G (Homo sapiens) (UniProt Q14671).
T3 sequence: T2 sequence with P180C, H181R, S252N, N253P, E256G
The conditions noted are these: yeast three-hybrid, YBZ-1, SC-Leu-His + 0.5 mM 3-AT, 4 days.
Consider “GGCUAGAACUAGUGGAUCCCCCGGCGCCCGGCGGCUCGAGCCCGGGUAAGUUGAAAUCGUCUGCAUGCCGCCGGGCGCCAUGCCUGCAGGUCGACUCUAGAAAACAUG”, for which the binding signal (log2 enrichment (interaction score)) was -0.89. In the case of “GGCUAGAACUAGUGGAUCCCCCGGCGCCCGGCGGCUCGAGCCCGGGUAAGUGUACGUCGUCUGCAUGCCGCCGGGCGCCAUGCCUGCAGGUCGACUCUAGAAAACAUG”, the binding signal (log2 enrichment (interaction score)) was -1.02.

Turning to “GGCUAGAACUAGUGGAUCCCCCGGCGCCCGGCGGCUCGAGCCCGGGUAAGUGUAAAAAGUCUGCAUGCCGCCGGGCGCCAUGCCUGCAGGUCGACUCUAGAAAACAUG”, the binding signal (log2 enrichment (interaction score)) was -1.09.
